Compound in this experiment: CN[C@@H]1C[C@H]2O[C@@](C)([C@@H]1OC)n1c3ccccc3c3c4c(c5c6ccccc6n2c5c31)C(=O)NC4 [staurosporine]
Nature of the experiment: log2 fold change of tryptic peptide abundance, ligand vs vehicle (limited proteolysis) (log2 ratio); higher = more trypsin-susceptible (destabilized). The conditions noted are these: ligand concentration: 20 uM; sample: mouse liver crude lysate; replicate design: treated separately.

Protein sequences, listed by entry. Tags and fused reporters are not part of them. Lines headed by an entry give the natural chain unless they say otherwise; changes in a name come on top.
UniProt Q91X78: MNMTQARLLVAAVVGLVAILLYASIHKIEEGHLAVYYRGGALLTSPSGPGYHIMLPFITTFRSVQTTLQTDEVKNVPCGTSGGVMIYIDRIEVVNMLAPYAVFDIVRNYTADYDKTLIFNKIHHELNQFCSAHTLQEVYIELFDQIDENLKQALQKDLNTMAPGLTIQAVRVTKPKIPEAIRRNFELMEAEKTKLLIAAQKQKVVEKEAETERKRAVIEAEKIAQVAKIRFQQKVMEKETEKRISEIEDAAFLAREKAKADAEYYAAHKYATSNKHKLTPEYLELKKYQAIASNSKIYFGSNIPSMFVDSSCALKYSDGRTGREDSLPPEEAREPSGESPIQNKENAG
UniProt Q8WUR0: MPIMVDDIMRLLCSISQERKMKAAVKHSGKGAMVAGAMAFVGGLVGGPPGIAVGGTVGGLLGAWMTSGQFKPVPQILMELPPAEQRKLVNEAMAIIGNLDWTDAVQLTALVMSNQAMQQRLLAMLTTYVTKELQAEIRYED
UniProt Q91VN1: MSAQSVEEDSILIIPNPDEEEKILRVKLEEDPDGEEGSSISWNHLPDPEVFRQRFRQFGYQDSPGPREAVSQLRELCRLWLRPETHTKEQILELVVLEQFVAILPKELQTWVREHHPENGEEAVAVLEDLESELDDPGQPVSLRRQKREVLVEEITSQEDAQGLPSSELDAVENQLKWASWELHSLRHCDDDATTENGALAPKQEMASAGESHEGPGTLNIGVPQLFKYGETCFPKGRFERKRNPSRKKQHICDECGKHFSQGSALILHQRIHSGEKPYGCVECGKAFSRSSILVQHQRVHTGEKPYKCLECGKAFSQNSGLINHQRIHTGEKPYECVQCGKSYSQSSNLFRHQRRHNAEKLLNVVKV
UniProt Q91WB7: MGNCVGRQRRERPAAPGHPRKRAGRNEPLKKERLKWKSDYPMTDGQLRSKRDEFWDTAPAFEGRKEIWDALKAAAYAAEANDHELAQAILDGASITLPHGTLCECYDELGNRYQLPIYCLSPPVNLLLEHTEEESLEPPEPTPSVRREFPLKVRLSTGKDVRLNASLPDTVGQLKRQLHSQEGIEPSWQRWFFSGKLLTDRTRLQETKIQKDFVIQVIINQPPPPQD
UniProt Q91WA4: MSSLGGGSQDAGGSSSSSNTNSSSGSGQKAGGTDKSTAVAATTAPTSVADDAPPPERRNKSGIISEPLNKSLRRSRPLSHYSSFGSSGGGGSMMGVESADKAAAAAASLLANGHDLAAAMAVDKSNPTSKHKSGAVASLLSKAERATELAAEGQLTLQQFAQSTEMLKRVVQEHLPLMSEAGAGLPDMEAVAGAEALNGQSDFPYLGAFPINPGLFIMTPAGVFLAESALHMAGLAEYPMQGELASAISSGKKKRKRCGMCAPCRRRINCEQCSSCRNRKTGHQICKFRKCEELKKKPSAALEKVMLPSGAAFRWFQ
UniProt Q91W63: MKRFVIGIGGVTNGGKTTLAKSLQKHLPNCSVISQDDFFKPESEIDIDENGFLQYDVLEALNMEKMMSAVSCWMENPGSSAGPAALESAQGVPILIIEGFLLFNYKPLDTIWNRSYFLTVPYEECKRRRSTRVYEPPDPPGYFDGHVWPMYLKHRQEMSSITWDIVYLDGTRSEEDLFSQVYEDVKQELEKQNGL
UniProt Q91WK0: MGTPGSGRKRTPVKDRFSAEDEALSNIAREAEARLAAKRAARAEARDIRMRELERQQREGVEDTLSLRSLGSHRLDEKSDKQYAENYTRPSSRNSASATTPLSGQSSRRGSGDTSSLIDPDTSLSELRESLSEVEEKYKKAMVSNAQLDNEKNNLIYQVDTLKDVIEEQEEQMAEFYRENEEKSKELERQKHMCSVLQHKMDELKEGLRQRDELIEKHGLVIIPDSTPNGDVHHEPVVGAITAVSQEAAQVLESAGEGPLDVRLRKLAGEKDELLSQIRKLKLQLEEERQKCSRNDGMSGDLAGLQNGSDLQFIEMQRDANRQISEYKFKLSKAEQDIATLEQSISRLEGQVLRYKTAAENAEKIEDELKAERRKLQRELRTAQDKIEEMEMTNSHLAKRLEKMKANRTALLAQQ
UniProt Q91VY9: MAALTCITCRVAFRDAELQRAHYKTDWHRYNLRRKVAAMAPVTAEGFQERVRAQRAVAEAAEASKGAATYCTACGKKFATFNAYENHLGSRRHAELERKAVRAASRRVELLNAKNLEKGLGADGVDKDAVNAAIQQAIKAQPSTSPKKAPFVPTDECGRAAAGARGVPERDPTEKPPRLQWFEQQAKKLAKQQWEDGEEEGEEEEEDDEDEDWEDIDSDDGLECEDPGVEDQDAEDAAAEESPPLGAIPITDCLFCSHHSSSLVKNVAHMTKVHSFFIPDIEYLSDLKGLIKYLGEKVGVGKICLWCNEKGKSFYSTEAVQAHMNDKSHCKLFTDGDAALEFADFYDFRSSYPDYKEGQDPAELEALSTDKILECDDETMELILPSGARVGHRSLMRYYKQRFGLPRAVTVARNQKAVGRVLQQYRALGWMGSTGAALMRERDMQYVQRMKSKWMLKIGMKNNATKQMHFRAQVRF
UniProt Q91WT4: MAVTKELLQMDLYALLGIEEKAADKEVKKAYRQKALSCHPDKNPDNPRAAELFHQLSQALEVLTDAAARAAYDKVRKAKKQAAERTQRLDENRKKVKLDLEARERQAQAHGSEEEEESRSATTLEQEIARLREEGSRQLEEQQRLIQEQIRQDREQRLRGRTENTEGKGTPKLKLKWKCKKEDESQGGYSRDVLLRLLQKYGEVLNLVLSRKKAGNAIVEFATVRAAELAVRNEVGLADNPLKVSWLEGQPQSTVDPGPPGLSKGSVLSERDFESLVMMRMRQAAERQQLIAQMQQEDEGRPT
UniProt Q91VT4: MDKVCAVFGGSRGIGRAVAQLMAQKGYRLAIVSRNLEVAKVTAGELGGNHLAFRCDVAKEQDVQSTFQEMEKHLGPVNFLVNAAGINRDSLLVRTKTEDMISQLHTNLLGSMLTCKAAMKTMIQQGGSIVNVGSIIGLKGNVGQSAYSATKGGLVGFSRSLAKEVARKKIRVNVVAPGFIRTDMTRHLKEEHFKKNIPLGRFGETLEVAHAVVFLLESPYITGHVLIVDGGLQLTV
UniProt Q8VHQ9: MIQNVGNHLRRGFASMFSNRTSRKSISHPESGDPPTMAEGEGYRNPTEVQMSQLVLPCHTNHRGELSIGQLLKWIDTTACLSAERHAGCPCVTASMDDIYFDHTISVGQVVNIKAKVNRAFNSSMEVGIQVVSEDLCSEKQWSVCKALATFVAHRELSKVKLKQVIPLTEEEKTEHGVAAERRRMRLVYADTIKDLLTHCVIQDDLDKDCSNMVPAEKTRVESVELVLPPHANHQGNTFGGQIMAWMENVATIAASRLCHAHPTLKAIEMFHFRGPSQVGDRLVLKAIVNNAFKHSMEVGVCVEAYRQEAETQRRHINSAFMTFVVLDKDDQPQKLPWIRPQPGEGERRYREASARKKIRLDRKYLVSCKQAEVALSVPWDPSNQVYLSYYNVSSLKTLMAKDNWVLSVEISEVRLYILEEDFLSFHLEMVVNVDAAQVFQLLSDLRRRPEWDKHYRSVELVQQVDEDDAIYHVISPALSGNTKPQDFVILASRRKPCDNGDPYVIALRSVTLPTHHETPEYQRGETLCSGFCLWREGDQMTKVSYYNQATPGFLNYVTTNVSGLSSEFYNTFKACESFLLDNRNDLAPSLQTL
UniProt Q91YD9, whole entry: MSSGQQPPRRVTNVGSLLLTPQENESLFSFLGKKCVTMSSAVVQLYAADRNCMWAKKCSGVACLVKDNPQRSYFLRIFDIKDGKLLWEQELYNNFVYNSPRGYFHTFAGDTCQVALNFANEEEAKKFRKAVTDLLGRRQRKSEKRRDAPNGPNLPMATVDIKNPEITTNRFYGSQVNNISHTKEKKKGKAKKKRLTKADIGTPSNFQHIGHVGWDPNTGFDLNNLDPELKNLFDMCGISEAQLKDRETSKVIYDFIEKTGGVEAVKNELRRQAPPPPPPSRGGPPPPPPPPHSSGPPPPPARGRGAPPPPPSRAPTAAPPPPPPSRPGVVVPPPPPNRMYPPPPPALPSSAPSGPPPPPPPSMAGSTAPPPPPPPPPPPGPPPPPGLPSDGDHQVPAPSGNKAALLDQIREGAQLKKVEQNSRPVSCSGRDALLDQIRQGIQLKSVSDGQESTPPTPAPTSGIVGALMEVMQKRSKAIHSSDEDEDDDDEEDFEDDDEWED
UniProt Q8VHP6: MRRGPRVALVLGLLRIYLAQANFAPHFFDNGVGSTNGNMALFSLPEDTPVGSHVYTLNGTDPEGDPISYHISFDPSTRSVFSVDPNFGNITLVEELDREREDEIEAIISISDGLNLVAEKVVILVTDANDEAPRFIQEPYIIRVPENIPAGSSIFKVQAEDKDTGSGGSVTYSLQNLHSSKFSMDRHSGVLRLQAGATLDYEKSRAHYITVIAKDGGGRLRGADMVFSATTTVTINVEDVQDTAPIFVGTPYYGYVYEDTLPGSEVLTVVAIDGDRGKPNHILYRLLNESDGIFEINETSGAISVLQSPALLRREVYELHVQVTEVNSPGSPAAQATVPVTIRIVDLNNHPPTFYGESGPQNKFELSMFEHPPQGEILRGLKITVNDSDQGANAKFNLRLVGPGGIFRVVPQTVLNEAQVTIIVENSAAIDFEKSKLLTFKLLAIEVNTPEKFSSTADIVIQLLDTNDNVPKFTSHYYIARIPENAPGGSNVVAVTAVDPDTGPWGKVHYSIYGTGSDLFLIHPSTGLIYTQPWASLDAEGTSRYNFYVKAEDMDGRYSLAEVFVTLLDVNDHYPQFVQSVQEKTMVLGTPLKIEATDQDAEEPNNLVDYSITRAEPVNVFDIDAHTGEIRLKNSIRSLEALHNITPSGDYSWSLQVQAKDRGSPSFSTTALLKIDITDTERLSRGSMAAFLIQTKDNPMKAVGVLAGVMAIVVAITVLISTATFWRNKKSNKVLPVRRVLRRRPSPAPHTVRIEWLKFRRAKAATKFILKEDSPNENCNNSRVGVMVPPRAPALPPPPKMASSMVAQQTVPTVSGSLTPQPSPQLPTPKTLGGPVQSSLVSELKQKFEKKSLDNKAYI
UniProt Q91W18: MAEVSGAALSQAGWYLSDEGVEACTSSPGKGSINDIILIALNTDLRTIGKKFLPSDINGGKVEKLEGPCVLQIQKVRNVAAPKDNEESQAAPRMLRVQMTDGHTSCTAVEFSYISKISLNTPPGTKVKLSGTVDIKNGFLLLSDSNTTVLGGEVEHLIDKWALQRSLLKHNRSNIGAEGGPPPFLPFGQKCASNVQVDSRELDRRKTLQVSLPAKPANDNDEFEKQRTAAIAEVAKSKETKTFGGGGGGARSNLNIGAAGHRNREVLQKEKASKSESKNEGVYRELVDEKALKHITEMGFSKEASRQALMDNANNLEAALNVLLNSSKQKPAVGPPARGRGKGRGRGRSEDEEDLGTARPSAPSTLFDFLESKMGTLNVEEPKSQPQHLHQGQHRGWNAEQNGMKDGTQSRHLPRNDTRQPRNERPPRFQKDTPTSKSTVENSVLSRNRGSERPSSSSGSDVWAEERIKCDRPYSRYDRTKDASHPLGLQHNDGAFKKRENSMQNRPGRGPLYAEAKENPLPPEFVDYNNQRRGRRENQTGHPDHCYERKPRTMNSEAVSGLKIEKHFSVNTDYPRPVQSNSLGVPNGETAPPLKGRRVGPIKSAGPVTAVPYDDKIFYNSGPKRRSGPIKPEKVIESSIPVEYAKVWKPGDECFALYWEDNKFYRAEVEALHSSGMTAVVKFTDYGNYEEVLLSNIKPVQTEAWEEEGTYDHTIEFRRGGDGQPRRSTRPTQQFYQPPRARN
UniProt Q91WG4: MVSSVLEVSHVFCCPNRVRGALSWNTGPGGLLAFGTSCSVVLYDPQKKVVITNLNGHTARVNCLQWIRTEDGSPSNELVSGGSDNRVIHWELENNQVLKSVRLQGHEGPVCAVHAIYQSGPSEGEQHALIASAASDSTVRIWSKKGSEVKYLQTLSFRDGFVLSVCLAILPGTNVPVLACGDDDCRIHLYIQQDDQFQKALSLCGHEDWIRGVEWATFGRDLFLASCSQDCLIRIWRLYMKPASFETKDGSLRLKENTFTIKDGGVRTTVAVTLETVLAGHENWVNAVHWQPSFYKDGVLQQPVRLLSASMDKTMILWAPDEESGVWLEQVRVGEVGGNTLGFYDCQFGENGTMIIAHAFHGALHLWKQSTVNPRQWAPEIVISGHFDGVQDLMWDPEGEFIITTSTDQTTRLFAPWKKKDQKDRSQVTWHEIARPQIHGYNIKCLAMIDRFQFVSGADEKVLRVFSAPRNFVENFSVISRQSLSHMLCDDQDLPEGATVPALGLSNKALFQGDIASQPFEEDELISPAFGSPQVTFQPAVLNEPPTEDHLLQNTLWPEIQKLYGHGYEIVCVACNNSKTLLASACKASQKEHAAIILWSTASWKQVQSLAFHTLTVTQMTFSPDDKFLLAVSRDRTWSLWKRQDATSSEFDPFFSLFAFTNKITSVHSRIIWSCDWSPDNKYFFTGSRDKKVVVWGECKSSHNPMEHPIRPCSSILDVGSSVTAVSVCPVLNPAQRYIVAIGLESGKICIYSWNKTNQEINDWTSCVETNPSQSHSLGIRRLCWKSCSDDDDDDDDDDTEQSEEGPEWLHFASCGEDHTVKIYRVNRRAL

The list shows a part of the results. Most values lie at the level of the controls, where differences are scatter.

With “UniProt Q91VS8 (peptide sequence: KLEAVYKEFELQK, peptide start residue: 659)”, the log2 fold change was -0.402.
For “UniProt Q91X43 (peptide sequence: VIPVWRPPPK, peptide start residue: 331)” the value was 0.767.
In the case of “UniProt Q91ZT9 (peptide sequence: TALHYAAER, peptide start residue: 88)”, the log2 fold change is 0.0727.
For “UniProt Q91YE6 (peptide sequence: ELLPNGLR, peptide start residue: 111)” the value was 0.361.
Under “UniProt Q91VL9 (peptide sequence: GAIMEENER, peptide start residue: 564)” stands -0.318; under “UniProt Q91WJ7 (peptide sequence: RFNPQYHNRLNGPAK, peptide start residue: 437)”, 0.117.
For “UniProt Q91X58 (peptide sequence: AVGEHIDR, peptide start residue: 75)”, the log2 fold change is -0.126.
Take “UniProt Q91WQ3 (peptide sequence: VDAQFGGVDQR, peptide start residue: 179)”: the log2 fold change came to 0.283.
For “UniProt Q91YN9 (peptide sequence: SLQNTDGKFN, peptide start residue: 201)”, the log2 fold change was -0.209.
Under “UniProt Q8VI93 (peptide sequence: LVAHNLHPAPEFTAAVR, peptide start residue: 14)” stands 0.191.
For “UniProt Q8WTY4 (peptide sequence: RPDPASLK, peptide start residue: 224)” the value was 0.149; for “UniProt Q8VHZ7 (peptide sequence: ALEENQLIPTELRR, peptide start residue: 35)”, -0.193; for “UniProt Q8VIJ8 (peptide sequence: MTENLLASLSEHER, peptide start residue: 482)”, -0.495.
Consider “UniProt Q91W86 (peptide sequence: GDREALSCR, peptide start residue: 579)”, for which the log2 fold change is -1.12.
For “UniProt Q91X78 (peptide sequence: ISEIEDAAFLAR, peptide start residue: 244)” the value was -0.227; for “UniProt Q8VHG2 (peptide sequence: LMQMSLATSGVK, peptide start residue: 179)”, 0.622; for “UniProt Q8VID5 (peptide sequence: YDEGSGGSGDEGRDEAHKR, peptide start residue: 485)”, 1.1.
For “UniProt Q91XE8 (peptide sequence: HTFGLVQSK, peptide start residue: 44)” the value was -0.419; for “UniProt Q91VW5 (peptide sequence: TNELVCTSR, peptide start residue: 1247)”, 0.412.
Under “UniProt Q8WUR0 (peptide sequence: PIMVDDIMR, peptide start residue: 2)” stands 0.0815; under “UniProt Q91VN1 (peptide sequence: IHSGEKPYGCVECGK, peptide start residue: 272)”, 0.275.
On to “UniProt Q91VM3 (peptide sequence: GHLDHEQVGSVGLVEMLHR, peptide start residue: 41)”, for which the log2 fold change is -0.00797.
For “UniProt Q8VHH5 (peptide sequence: ATPTTAPGTSPR, peptide start residue: 469)” the value was 0.12; for “UniProt Q91WB7 (peptide sequence: QLHSQEGIEPSWQR, peptide start residue: 177)”, -0.426; for “UniProt Q91YT8 (peptide sequence: ILNGLASER, peptide start residue: 755)”, -0.139.
Under “UniProt Q91YI4 (peptide sequence: RGLALDGQLK, peptide start residue: 287)” stands 0.243.
Take “UniProt Q91Y57 (peptide sequence: LTDWTDSDPVHGFWYR, peptide start residue: 54)”: the log2 fold change stood at 0.193.
“UniProt Q91X88 (peptide sequence: MDDWKPSPLIKPFGAR, peptide start residue: 1)”: the log2 fold change is 0.114.
Under “UniProt Q91WF7 (peptide sequence: FVQLGQSQHKQDR, peptide start residue: 821)” stands 0.557.
Under “UniProt Q91WA4 (peptide sequence: SGAVASLLSK, peptide start residue: 133)” stands -0.0861; under “UniProt Q91WN4 (peptide sequence: KSAIPYGNK, peptide start residue: 94)”, -0.562; under “UniProt Q91W63 (peptide sequence: FVIGIGGVTNGGK, peptide start residue: 4)”, -0.0367.
For “UniProt Q91WK0 (peptide sequence: QRDELIEK, peptide start residue: 210)” the value was -0.165.
As for “UniProt Q91V09 (peptide sequence: VVDNEGALQLKR, peptide start residue: 386)”, the log2 fold change was -0.284.
Under “UniProt Q91VY9 (peptide sequence: RVELLNAK, peptide start residue: 107)” stands 0.147; under “UniProt Q91WG2 (peptide sequence: QQQQQDFEEKDR, peptide start residue: 96)”, 0.323.
Under “UniProt Q8VHN8 (peptide sequence: QLTLEQLHAVEISAVHSR, peptide start residue: 116)” stands -0.274.
In the case of “UniProt Q8VHK9 (peptide sequence: EIGLWYAK, peptide start residue: 54)”, the log2 fold change came to 0.109.
For “UniProt Q91WT4 (peptide sequence: VKLDLEAR, peptide start residue: 96)” the value was 0.399; for “UniProt Q91VT4 (peptide sequence: VNVVAPGFIRTDMTR, peptide start residue: 172)”, 0.455.
For “UniProt Q91ZA3 (peptide sequence: VPVIRPDVAKWELSVK, peptide start residue: 545)” the value was -0.43; for “UniProt Q8VHQ9 (peptide sequence: ALATFVAHR, peptide start residue: 147)”, 0.194; for “UniProt Q91VA0 (peptide sequence: MKDPMAIFFTSGTTGYPK, peptide start residue: 213)”, -0.775.
For “UniProt Q91WT9 (peptide sequence: AVVDKWFK, peptide start residue: 315)” the value was -0.451; for “UniProt Q91VD9 (peptide sequence: LSVAGNCR, peptide start residue: 69)”, -0.313; for “UniProt Q91W98 (peptide sequence: SGEGLGVFQQSSK, peptide start residue: 281)”, 0.0973.
With “UniProt Q91ZP3 (peptide sequence: KAQLDNLKR, peptide start residue: 161)”, the log2 fold change worked out at 0.726.
Under “UniProt Q91VX9 (peptide sequence: KINDQYVAVQGAELAK, peptide start residue: 558)” stands 0.396; under “UniProt Q91YP2 (peptide sequence: WDLSPEQIR, peptide start residue: 50)”, -0.523; under “UniProt Q91YD9 (peptide sequence: KAVTDLLGR, peptide start residue: 129)”, 0.217.
For “UniProt Q91XA2 (peptide sequence: GIINVPVGSER, peptide start residue: 367)” the value was -0.268.
Under “UniProt Q91VY5 (peptide sequence: TVSLGQIVITK, peptide start residue: 906)” stands -0.22; under “UniProt Q91XI1 (peptide sequence: DWGVALVTLHGR, peptide start residue: 443)”, 0.339; under “UniProt Q8VHP6 (peptide sequence: PNHILYR, peptide start residue: 279)”, 0.00859.
For “UniProt Q91W18 (peptide sequence: CDRPYSR, peptide start residue: 470)”, the log2 fold change was -0.949.
Under “UniProt Q91W34 (peptide sequence: ESWILVR, peptide start residue: 413)” stands 0.307; under “UniProt Q91WG0 (peptide sequence: AGVHTFLGIPFAKPPVGPLR, peptide start residue: 55)”, -0.321; under “UniProt Q91WG4 (peptide sequence: CLAMIDR, peptide start residue: 445)”, 0.564.
For “UniProt Q91VC3 (peptide sequence: DVIAQSQSGTGK, peptide start residue: 77)” the value was 0.174.

The record behind these values is the supplement of paper PMC12819154, “High-throughput peptide-centric local stability assay extends protein–ligand identification to membrane proteins, tissues and bacteria” (Nature Structural & Molecular Biology, 2025).
